Reference: patent publication US5434138A (Hoechst Aktiengesellschaft, priority 1990, dated 1995)

Assay: general procedure: solution-phase peptide synthesis; DCC/HOBt or DCC/HOObt
Conditions: coupling step

Row | Substance | step yield
1 | Fmoc-Leu-Ser[Fuc(Ac3)]-Pro-Azagly-NH2 | 69%
2 | Fmoc-Leu-Ser[Xyl(Ac3)]-Pro-Azagly-NH2 | 73%
3 | Fmoc-D-Ser[Rha(Ac3)]-Leu-Ser[Xyl(Ac3)]-Pro-Azagly-NH2 | 71%
4 | Ac-D-Nal-D-p-Cl-Phe-D-Pal-Ser-Tyr-D-Ser[Rha(Ac3)]-Leu-Ser[Rha(Ac3)]-Pro-Azagly-NH2 | 85%
5 | Fmoc-D-Ser[Rha(Ac3)]-Leu-Ser[Rha(Ac3)]-Pro-Azagly-NH2 | 78%
6 | Fmoc-D-Ser[Rha(Ac3)]-Leu-Ser[Rha(Ac3)]-Pro-D-Ala-NH2 | 73%
7 | Fmoc-D-Ser[Rha(Ac3)]-Leu-Ser[Fuc(Ac3)]-Pro-Azagly-NH2 | 77%
8 | Ac-D-Nal-D-p-Cl-Phe-D-TrP-Ser-TYr-D-Ser[Rha(Ac3)]-Leu-Ser[Rha(Ac3)]-Pro-Azagly-NH2 | 59%
9 | Ac-D-Nal-D-p-Cl-Phe-D-Trp-Ser(tBu)-Tyr(tBu)-OtBu | 59%
10 | Ac-D-Nal-D-p-Cl-Phe-D-Pal-Ser-Tyr-D-Ser[Rha(Ac3)]-Leu-Ser[Rha(Ac3)]-Pro-D-Ala-NH2 | 74%
11 | Ac-D-Nal-D-p-Cl-Phe-D-Pal-Ser-Tyr-D-Ser[Rha(Ac3)]-Leu-Ser[Fuc(Acs)]-Pro-Azagly-NH2 | 74%
12 | Fmoc-Leu-Ser[Rha(Ac3)]-Pro-D-Ala-NH2 | 66%
13 | Fmoc-Leu-Ser[Rha(Ac3)]-Pro-Azagly-NH2 | 83%
14 | Fmoc-[dPhe(4-Cl)][dW]S(tBu)Y(tBu)-OtBu | 77.8%

Same assay, conditions: late stage modification step

Row | Substance | step yield
15 | H-D-Ser[Rha(Ac3)]-Leu-Ser[Fuc(Ac3)]-Pro-Azagly-NH2 | 90%
16 | Ac-D-Nal-D-p-Cl-Phe-D-Trp-Ser-Tyr-D-Ser(Rha)-Leu-Ser(Rha)-Pro-Azagly-NH2 | 27%
17 | H-Leu-Ser[Xyl(Ac3)]-Pro-Azagly-NH2 | 86%
18 | H-Leu-Ser[Rha(Ac3)]-Pro-AzaglY-NH2 | 87%
19 | H-D-Ser[Rha(Ac3)]-Leu-Ser[Rha(Ac3)]-Pro-Azagly-NH2 | 89%
20 | H-D-Ser[Rha(Ac3)]-Leu-Ser[Rha(Ac3)]-Pro-D-Ala-NH2 | 91%
21 | H-Leu-Ser[Rha(Ac3)]-Pro-D-Ala-NH2 | 90%
22 | Ac-D-Nal-D-p-Cl-Phe-D-Pal-Ser-Tyr-D-Ser(Rha)-Leu-Ser(Rha)-Pro-D-Ala-NH2 | 20%
23 | Ac-D-Nal-D-p-Cl-Phe-D-Pal-Ser-Tyr-D-Ser(Rha)-Leu-Ser(Fuc)-Pro-Azagly-NH2 | 15%
24 | H-D-Ser[Rha(AC3)]-Leu-Ser[Xyl(Acs)]-Pro-Azagly-NH2 | 90%
25 | H-Leu-Ser[Fuc(Ac3)]-Pro-Azagly-NH2 | 88%
26 | Ac-D-Nal-D-p-Cl-Phe-D-Pal-Ser-Tyr-D-Ser(Rha)-Leu-Ser(Rha)-Pro-AzaglY-NH2 | 22%
27 | H-[dPhe(4-Cl)][dW]S(tBu)Y(tBu)-OtBu | 104.9%

Non-standard residues stand in square brackets, D forms with d. *: point of attachment. dPhe(4-Cl) = N[C@H](Cc1ccc(Cl)cc1)C(=O)O; Fmoc = O=C(OCC1c2ccccc2-c2ccccc21)*; OtBu = CC(C)(C)O*; tBu = CC(C)(C)*
